Source: patent EP0315079B1, “Drug carriers” (NIPPON SHINYAKU COMPANY, LIMITED, priority 1987, dated 1989)

Tested on: carrageenin edema
Assay: Carrageenin edema inhibition (Test Example 2-5)
Assay type: in vivo, SD strain male rats
Settings: i.v. 30 min after carrageenin, paw volume 5 hours after carrageenin, converted into Dexamethasone; test sample = Example 4 type carrier
Description: λ-Carrageenin (0.5%, 1 ml) was subcutaneously administered to SD strain male rats (weighing about 160 g) at one paw heel. Thirty minutes after, the test sample, the comparative sample and Dexamethasone phosphate were intravenously administered in the tail vein. For the control group, physiological saline was administered. A volume of the paw was measured prior to the administration of carrageenin and 5 hours after the administration in a conventional manner to determine an edema inhibition ratio.

**Q.** For `C[C@@H]1C[C@H]2[C@@H]3CCC4=CC(=O)C=C[C@]4(C)[C@@]3(F)[C@@H](O)C[C@]2(C)[C@@]1(O)C(=O)COP(=O)(O)O` [Dexamethasone phosphate], which “ED ₅₀ (50% Edema Inhibition Dose)” value is on record?
**A.** 0.023 mg/kg
